Measurements from PubChem BioAssay AID1469 (National Center for Advancing Translational Sciences (NCATS), 2008).
In all, about 280,000 compounds went through this assay and about 180 (0.064%) were called active. Inconclusive results, whose numbers are uncertain, are shown with a selection of clear calls. The call rests on the fitted dose curve; in most records, active means well fitted inhibition curve with a large enough effect; inconclusive means small, poorly fitted or top-dose-only effect, or effect the other way; inactive means flat fitted curve, though single readings scatter. Potencies beside an inconclusive call are fits to weak or partial responses and may not hold up.

By UniProt entry, the sequences of proteins in these tests, tags left out. Where a name states a change or a piece, a line headed by the entry shows the natural chain unless it says otherwise.
UniProt P10828: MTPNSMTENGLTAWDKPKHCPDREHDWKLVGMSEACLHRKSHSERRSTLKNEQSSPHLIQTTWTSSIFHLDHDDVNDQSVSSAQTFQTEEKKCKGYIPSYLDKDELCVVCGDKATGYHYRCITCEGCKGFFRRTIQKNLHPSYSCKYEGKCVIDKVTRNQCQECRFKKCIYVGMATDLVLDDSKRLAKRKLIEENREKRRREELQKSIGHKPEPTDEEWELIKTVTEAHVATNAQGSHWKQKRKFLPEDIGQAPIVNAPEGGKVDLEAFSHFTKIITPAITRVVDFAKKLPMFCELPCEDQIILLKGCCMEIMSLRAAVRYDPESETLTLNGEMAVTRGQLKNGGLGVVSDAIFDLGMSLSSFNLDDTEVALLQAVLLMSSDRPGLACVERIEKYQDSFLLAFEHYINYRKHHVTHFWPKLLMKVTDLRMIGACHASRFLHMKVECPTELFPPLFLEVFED

Molecular target: Thyroid hormone receptor beta (Homo sapiens) (UniProt P10828)
Assay: qHTS for Inhibitors of the Interaction of Thyroid Hormone Receptor and Steroid Receptor Coregulator 2; further: nearly all actives have a fitted effect of over 50% in size;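 on activity change, negative = inhibition: plate controls were bound peptide for no effect and peptide without receptor for full effect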
Settings: TRbeta-SRC2 peptide binding, fluorescence polarization, receptor liganded with 1 µM T3; series mostly up to 106 µM; activity change, negative = inhibition: at the top concentration
Outline: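 Each compound concentration gave % activity, normalized to unbound and bound Texas Red SRC2 controls, from polarization read after 5 hr ambient incubation with T3-loaded human TRb LBD.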
Potency means the concentration at half of the fitted maximal effect.

SMILES | activity change, negative = inhibition | Potency
NCCO/C=C/[C@H](N)C(=O)O | inactive: 3.13% [at 201 µM] | 
O=C(O)CC1S/C(=N/N=C/c2ccc(-c3ccccc3[N+](=O)[O-])o2)NC1=O (stereo unspecified) |  | inconclusive: 79.4 µM [inhibitor, partial curve]
Cc1ccc(CNc2ccc3c(c2)OCO3)cc1 |  | inconclusive: 79.4 µM [inhibitor, partial curve, poor fit]
CCN1/C(=C/C(C)=C/c2sc3ccccc3[n+]2CC)Sc2ccccc21 |  | inconclusive: 8.91 µM [activator, full curve]
CC(Cl)(Cl)C(=O)OCCOc1cc(Cl)c(Cl)cc1Cl | inactive: -3.33% [at 201 µM] | 
O=C(O)C1Nc2c(O)cc(Cl)c([N+](=O)[O-])c2C2C=CCC12 (stereo unspecified) |  | inconclusive: 44.7 µM [activator, partial curve]
CN(C)CCNC(=O)C1CCN(Cc2cc3ccccc3n2Cc2ccccc2)CC1 | inactive: 1% | 
Nn1cnnc1N/N=C/c1cc(Br)cc(Br)c1O | inactive: -6.93% | 
C/C(=C\C(=O)c1cccnc1)Nc1ccc(O)cc1 |  | active: 14.1 µM
CCCCn1cc2c(c1-c1ccccc1Br)c(=O)n(C)c(=O)n2C | inactive: -11.9% | 
O=C(Cc1cc(=O)[nH]c(=O)[nH]1)NCc1ccc(Cl)cc1 |  | inconclusive: 70.8 µM [inhibitor, single point]
CCN1/C(=C\C=C2\C(=O)N(C)C(=S)N2C)Sc2ccccc21 |  | inconclusive: 20 µM [inhibitor, full curve, poor fit]
Cc1ccc2cc(C3C(C#N)=C(N)Oc4c3ccc3cccnc43)c(=O)[nH]c2c1 (stereo unspecified) |  | inconclusive: 63.1 µM [inhibitor, partial curve]
COc1ccc(OC)c(C(=O)c2ccc(C(=O)N3CCCCC3)cc2)c1 | inactive: -3.63% | 
CCCNC(=O)c1ccc(Cl)cc1Cl |  | inconclusive: 50.1 µM [activator, partial curve, poor fit]
COc1cc(/C=C2\SC(=S)N(NC(=O)c3cccnc3)C2=O)ccc1O |  | inconclusive: 28.2 µM [activator, partial curve]
COC(=O)c1ccc2c(c1)C(C)(C)C(/C=C/c1ccc(O)cc1)=[N+]2C |  | inconclusive: 10 µM [activator, full curve]
O=S(=O)(Nc1cc(Sc2ncn[nH]2)c(O)c2ccccc12)c1ccccc1 |  | inconclusive: 70.8 µM [inhibitor, single point]
CCOc1ccccc1C(=O)Nn1c(C2CCC2)nc2ccccc2c1=O | inactive: -4.78% | 
COc1ccccc1-c1nc2c(c(SCc3ccc(F)cc3Cl)n1)Cc1c(CO)cnc(C)c1O2 | inactive: -3.63% | 
COc1cc(/C=C2\C(=O)N(c3ccccc3)N=C2C)ccc1Oc1ccc([N+](=O)[O-])cc1[N+](=O)[O-] |  | inconclusive: 15.8 µM [inhibitor, partial curve]
COc1ccc(O)c(N)c1 |  | inconclusive: 50.1 µM [inhibitor, partial curve]
COc1ccc(-c2oc3ncn4nc(-c5ccc(Cl)cc5)nc4c3c2-c2ccc(OC)cc2)cc1 | inactive: 9.49% | 
CCOC(=O)c1ccc(CSc2nnc3cc(C)c4ccccc4n23)cc1 |  | inconclusive: 100 µM [inhibitor, partial curve, poor fit]

SMILES | activity change, negative = inhibition | Potency
CCOC(=O)CN1C(=O)S/C(=C/C=C/c2ccc(N(C)C)cc2)C1=O |  | inconclusive: 7.94 µM [activator, full curve]
N#C/C(=C\c1ccc(-c2cccc(Cl)c2)o1)C(=O)Nc1cccc(C(F)(F)F)c1 |  | inconclusive: 3.55 µM [inhibitor, partial curve]
COc1ccccc1N1CCN(C(=O)CNS(=O)(=O)c2ccc(Br)s2)CC1 |  | inconclusive: 100 µM [inhibitor, partial curve]
O=C(O)[C@H]1CN(CCCP(=O)(O)O)CCN1 |  | inconclusive: 31.6 µM [inhibitor, partial curve]
N=C1CCC(=N)c2c1c(O)c1ccccc1c2O |  | active: 31.6 µM
CCN1/C(=C/C=C/c2oc3ccc4ccccc4c3[n+]2CC)Oc2ccc3ccccc3c21 |  | active: 10 µM
O=C(O)CC1S/C(=N/N=C/c2ccc(-c3ccc(Cl)cc3[N+](=O)[O-])o2)NC1=O (stereo unspecified) |  | inconclusive: 44.7 µM [inhibitor, partial curve]
O=C(CSc1nc(=O)[nH]c2c1CCCC2)NCc1ccc(F)cc1 | inactive: -4.31% | 
COc1ccc(CNc2nc(SCc3ccccc3Cl)nc3ccccc23)cc1 | inactive: 6.41% | 
Cc1cc(C(=O)N2CCN(C/C=C/c3ccccc3)CC2)no1 |  | inconclusive: 100 µM [inhibitor, partial curve, poor fit]
COc1ccccc1CNC(=O)c1c(N)n(CCCN2CCOCC2)c2nc3ccccc3nc12 |  | inconclusive: 17.8 µM [inhibitor, full curve]
CCOc1ccc2nc(SCc3cccc(C)c3)nc(C)c2c1 |  | inconclusive: 1.78 µM [inhibitor, full curve, poor fit]
Nc1c(S(=O)(=O)c2ccccc2)c2nc3ccccc3nc2n1/N=C/c1ccco1 |  | inconclusive: 50.1 µM [activator, partial curve]
CCOC(=O)c1c(NC(=O)/C=C/C(=O)O)sc(C)c1-c1ccc(C(C)(C)C)cc1 |  | inconclusive: 50.1 µM [inhibitor, partial curve]
CCC(NC(=O)Nc1ccc(O)cc1)(C(F)(F)F)C(F)(F)F |  | inconclusive: 25.1 µM [inhibitor, full curve]
Cc1cc2nn(-c3ccc(F)cc3)nc2cc1NC(=O)c1cc(Cl)ccc1Cl |  | inconclusive: 28.2 µM [inhibitor, partial curve, poor fit]
COc1ccc(NC(=O)Cc2ccccc2)cn1 | inactive: 1.56% | 
CC1=[N+](C)c2c(ccc3cccnc23)C1(C)C |  | active: 25.1 µM
CN1/C(=C\C=C2/SC(=S)NC2=O)C(C)(C)c2ccccc21 |  | inconclusive: 15.8 µM [activator, partial curve]
Cc1cc2ccccc2n1CCNC(=O)C(C)Oc1ccccc1 (stereo unspecified) |  | active: 50.1 µM
Cc1cccc(NC(=O)/C(=C\c2cccs2)NC(=O)c2ccccc2)c1 |  | inconclusive: 100 µM [inhibitor, partial curve, poor fit]
CN(C)c1ccc(/C=C/c2ccc3ccccc3[n+]2C)cc1 |  | inconclusive: 50.1 µM [activator, partial curve]
COc1cc(/C=C(/C#N)c2nc3ccccc3[nH]2)ccc1OCC(=O)Nc1ccccc1C |  | inconclusive: 44.7 µM [inhibitor, partial curve]
O=C(CSc1nnc(Cc2cccs2)n1Cc1ccco1)Nc1ccc(Cl)cc1Cl |  | inconclusive: 56.2 µM [inhibitor, partial curve]

Three compounds out of the list, sorted by length of the SMILES, ascending.
SMILES | activity change, negative = inhibition | Potency
CCC(NC(=O)Nc1ccc(O)cc1)(C(F)(F)F)C(F)(F)F |  | inconclusive: 25.1 µM [inhibitor, full curve]
O=C(CSc1nnc(Cc2cccs2)n1Cc1ccco1)Nc1ccc(Cl)cc1Cl |  | inconclusive: 56.2 µM [inhibitor, partial curve]
COc1ccccc1CNC(=O)c1c(N)n(CCCN2CCOCC2)c2nc3ccccc3nc12 |  | inconclusive: 17.8 µM [inhibitor, full curve]

Next records:

SMILES | activity change, negative = inhibition | Potency
O=C(/C=C/c1ccc(Br)cc1)NC(=O)c1ccccc1O |  | inconclusive: 50.1 µM [activator, single point]
CCOC(=O)C1=C(O)/C(=C/c2ccc(-c3ccccc3C(=O)O)o2)SC1=Nc1ccc(OC)cc1 | inactive: 2.19% | 
COc1cc(/C=C(\C#N)c2nc(-c3cc4ccccc4oc3=O)cs2)ccc1O | inactive: -2.48% | 
Oc1ccc(C=Nc2ccc3ncccc3c2)c(O)c1 |  | inconclusive: 15.8 µM [inhibitor, full curve]
COc1cccc2c1C(=O)c1c(O)c3c(c(O)c1C2=O)C[C@@](O)(C(=O)CO)C[C@@H]3OC1C[C@@H](N)[C@H](O)[C@H](C)O1 (stereo partly specified) |  | active: 14.1 µM
Brc1cccc(CNCc2cccs2)c1 | inactive: -7.43% | 
COc1ccc(C)cc1NS(=O)(=O)c1ccc2oc(=O)c3ncn(C)c3c2c1 | inactive: 1.4% | 
O=C(NCc1cccnc1)c1ccc(-c2ccccc2[N+](=O)[O-])o1 |  | inconclusive: 70.8 µM [inhibitor, single point]
CCN(CC)c1ccc2c(c1)CCCN2 |  | inconclusive: 39.8 µM [inhibitor, partial curve]
CC(C)OCCCn1c(SCc2ccccc2Cl)nc2c(sc3ccccc32)c1=O | inactive: 4.48% | 
COc1cc(OC)c(NC(=O)CSCc2nc(-c3ccc(OC)c(OC)c3)no2)cc1Cl | inactive: 0.279% | 
CC(=O)[C@]1(O)Cc2c(O)c3c(c(O)c2[C@@H](O[C@H]2C[C@H](N)[C@H](O)[C@H](C)O2)C1)C(=O)c1c(O)cccc1C3=O |  | active: 22.4 µM
Cc1cc(C)c([N+](=O)[O-])cc1-c1ccc(/C=N/c2c(-c3ccco3)nc3ccccn23)o1 | inactive: -19.1% | 
COc1cc(OC)c(NC(=O)Nc2sc3nc4n(c(=O)c3c2C)CCC(C)CC4)cc1Cl (stereo unspecified) | inactive: 7.39% | 
O=C(O)c1cccc(NC(=O)c2cccc(S(=O)(=O)Nc3cccc(F)c3)c2)c1 |  | inconclusive: 1.78 µM [activator, partial curve, poor fit]
CO/N=C/C=C1/N(C)c2ccccc2C1(C)C | inactive: 9.08% | 
Cc1cccc(S(=O)(=O)c2c(N)n(/N=C/c3ccco3)c3nc4ccccc4nc23)c1 |  | inconclusive: 44.7 µM [activator, partial curve]
O=C(CSc1nc(-c2ccccc2)nc2c1Cc1ccccc1O2)Nc1ccc(C(=O)O)cc1 |  | inconclusive: 50.1 µM [activator, partial curve, poor fit]
Cc1cn2c(N)c(/C=C3\C=Nc4ccccc43)c(=O)nc2s1 |  | inconclusive: 70.8 µM [activator, single point]
O=C(Nc1ccccc1)Nc1nc(-c2ccccc2)cs1 | inactive: 1.21% | 
C=CCN1C(=O)/C(=C/c2ccc(OC(C)=O)c(OCC)c2[N+](=O)[O-])SC1=S | inactive: 4.2% | 
CN(C)c1ccc(/C=C/c2cc[n+](C)cc2)cc1 |  | inconclusive: 35.5 µM [activator, partial curve]
O=C1c2ccccc2-c2onc3ccc(NCc4ccco4)c1c23 |  | active: 35.5 µM
